Source: patent US20250041270A1, “SMALL MOLECULE DRUGS THAT REDUCE PROTEIN AGGREGATION” (BIOVENTURES, LLC, priority 2021, published 2025)

System: SH-SY5Y-APPSw cells
Experiment: Proteomic identification of proteins in sarkosyl-insoluble aggregates
Format: cell-based, human
Description: Isolation of aggregate proteins. Cultured human cells were collected, flash frozen in liquid nitrogen, and homogenized at 0° C. in the presence of buffer containing nonionic detergent (1% v/v NP40, 20-mM Hepes pH 7.4, 300-mM NaCl, 2-mM MgCl2, and protease/phosphatase inhibitors [CalBiochem]). Lysates were centrifuged (5 min, 3000 rpm at 4° C.) to remove debris. After removal of cytosolic proteins (soluble in 1% NP40 nonionic detergent) by centrifugation (18 min, 13,000×g at 4° C.), protein pellets were brought to pH 7.4 with 0.1-M HEPES buffer containing 1% v/v sarkosyl(sodium lauryl sarcosinate) and 5-mM EDTA, and centrifuged 30 min at 100,000×g. Pellet proteins (the sarkosyl-insoluble fraction) were resuspended in Laemmli loading buffer (containing 50-mM dithiothreitol and 2% v/v SDS, sodium dodecyl sulfate), heated 5 min at 95° C. to dissolve proteins soluble in this buffer, and separated by electrophoresis on 4-20% polyacrylamide gradient gels containing 1% v/v SDS. Gels were stained with SYPRO Ruby (ThermoFisher) or Coomassie Blue to visualize protein. Gel lanes were robotically cut into 1-mm slices, and digested thoroughly with trypsin. Proteins in each slice were identified by mass spectrometry as described previously (Ayyadevara et al., 2015; Ayyadevara et al., 2016a; Ayyadevara et al., 2016b; Ayyadevara et al., 2016c; Ayyadevara et al., 2016d; Balasubramaniam et al., 2018).

## O=C(NC[C@H]1CC[C@H](CO)CC1)c1ccc(N2CCCC2)c(Cl)c1 [MSR1, 3-chloro-N-{[trans-4-(hydroxymethyl)cyclo-hexyl]methyl}-4-pyrrolidin-1-ylbenzamide]
48 hr, 1-μM MSR1
  number of aggregate proteins not detected after both GFAP siRNA and MSR1 (proteomic overlap): 251 proteins
Linear regression, P≤3E-280
  correlation R of log2(fold change) of aggregate protein abundance, MSR1 vs GFAP siRNA: 0.77
Proteins >7 spectral counts in control, 0 hits after treatment
  concordance of proteins completely eliminated from aggregates with those eliminated by GFAP siRNA: 87%
